According to PubChem BioAssay AID588497 (NMMLSC, 2011):
Out of some 360,000 compounds screened, about 780 (0.22%) were called active. This list was built around the results that the source calls inconclusive (neither active nor inactive); the mix of calls is not that of the screen. Rule as the data show it: active = inhibition above about 35% (passing the limit was not always enough); inconclusive = no clear call, values can overlap the other calls.

Each compound was assayed on Botulinum neurotoxin type F light chain protease (Clostridium botulinum) (assay: BoNT/F light chain protease inhibitors, primary screen, biochemical, flow cytometry, MLPCN library (AID 588497; also: plate controls were buffer without enzyme for full effect and enzyme alone for no effect)). Conditions: Multiplex microsphere protease cleavage assay, at 10 µM, stronger effect = higher value.

Compound | inhibition
O=S(=O)(Nc1cc(F)ccc1F)c1cccc2nsnc12 | inconclusive: 34.6%
O=C(O)CS(=O)(=O)CC(=O)NCc1cccc(C(F)(F)F)c1 | active: 49.8%
NC(N)=NS(=O)(=O)c1ccc(NC(=S)NC(=O)/C=C/c2ccc(F)cc2)cc1 | inconclusive: -21.6%
C/C(=C\C(=O)c1cccnc1)Nc1ccc(O)cc1 | inactive: -5.9%
COC(=O)Nc1ccc2c(c1)ncn2C1CCCCC1 | inconclusive: -12.4%
Cc1cc2cc(CN(Cc3ccc4c(c3)OCO4)C(=O)c3cnccn3)c3nnnn3c2cc1C | inactive: -18.4%
CCCC(=O)O/N=C(\c1ccccc1)c1ccncc1 | inconclusive: -0.4%
NS(=O)(=O)c1ccc(CNC(=O)c2cc(=O)c3cc(Cl)ccc3o2)cc1 | inconclusive: -19.2%
CCOC(=O)c1c(NC(=O)NC(C)(C)C)sc2c1CCN(C)C2 | inconclusive: 111%
COc1cccc(NC(=O)Nc2nnc(Cc3ccccc3)s2)c1 | inconclusive: -2.4%
Cc1cc(C(=O)Nc2ccc(S(=O)(=O)Nc3onc(C)c3C)cc2)c(C)o1 | active: 41.9%
CCOC(=O)c1c(C)c(C(=O)Nc2ccc3c(c2)OCCO3)c(C)n1C | inactive: -11.8%
O=c1oc2c(O)cccc2cc1-c1nc2ccccc2[nH]1 | inconclusive: -10.2%
O=C(C[n+]1ccccc1)Nc1ccccc1C(F)(F)F | inconclusive: 5.5%
Cc1ccc(C(O)c2nc3ccccc3n2C)cc1 (centres undefined) | active: 35.4%
O=C(c1c(F)cccc1F)N1CCCC(c2nc(-c3ccc(Cl)cc3)no2)C1 (centres undefined) | inconclusive: 11.9%
O=C(CCCc1nc2ccccc2s1)NCc1ccccc1 | inactive: 3.9%
O=C(NCc1ccco1)/C(=C/C=C\c1ccccc1)NC(=O)c1ccc(Br)o1 | inactive: -6.3%
c1ccc(-c2csc(-c3ccc(-c4csnn4)cc3)n2)cc1 | inconclusive: 173%
CC(=O)NCCC(=O)N1CCCC(N(C)CCc2ccccc2)C1 (centres undefined) | inconclusive: 16.5%
Cc1onc(C(=O)N2CCC(C(N)=O)CC2)c1-c1ccccc1Cl | inconclusive: 17.9%
CC(C)(C)C(=O)N/C(N)=N/c1nc2ccccc2o1 | inconclusive: -27.2%
CSc1sc(-c2n[nH]c(=S)n2C)c2c1C=CCC2 | inconclusive: -103%
OCCNCC(O)CN1c2ccccc2Sc2ccccc21 (centres undefined) | inconclusive: -18.1%

Compound | inhibition
CCOc1ccc(N2C(=O)CC(Cc3ccccc3OC)C2=O)cc1 (centres undefined) | inconclusive: -25.6%
CCc1nc2c(OCc3ccc(C(F)(F)F)cc3)cccn2c1N(C)C(=O)CC(C)C | inactive: 0.4%
COc1cccc2cc(C(=O)OCc3ccccc3)c(=O)oc12 | inconclusive: -10.8%
Cc1ccc(C)c(N(CC(=O)NC(C)(C)C)C(=O)CCC(=O)Nc2nccs2)c1 | inconclusive: -20.9%
CC(NC(=O)c1ccccc1Cl)NC(=O)c1ccccc1Cl | inconclusive: 20.6%
CCOc1cc(C(=O)Nc2ccc(N3CCN(C(C)=O)CC3)cc2)cc(OCC)c1OCC | inconclusive: -36.3%
Cc1cccc(NCC(=O)N/N=C\c2cccn2C)c1 | inconclusive: -30.1%
CCOc1ccc(CN2CCN(C(=O)c3cccc4ccccc34)CC2)cc1 | inconclusive: -10.7%
O=C(CSc1nnc(-c2cc3ccccc3cc2O)n1Cc1ccco1)N1CCc2ccccc2C1 | inactive: -7.1%
O=C(CNS(=O)(=O)c1ccc(Br)s1)NCc1ccccc1 | inactive: 2.8%
COc1cccc(NC(=O)Cc2ccc3ccccc3c2)c1 | inconclusive: 12.7%
COc1ccc(-c2c(-c3ccc(OC)c(C)c3O)n[nH]c2C)cc1 | inconclusive: -37.2%
CCc1nnc(NC(=O)c2ccc(COc3ccccc3)o2)s1 | inactive: -3.3%
Nc1ccc(S(=O)(=O)N2CCCC2)cc1Cl | inactive: -3.1%
COc1ccccc1NC(=O)c1cc[n+](C)cc1 | inconclusive: 26.6%
COc1ccc(NC2CCCN(C(=O)COc3ccc(C)cc3)C2)cc1 (centres undefined) | inactive: -7.5%
Oc1ccc(-c2cn3ccccc3n2)cc1O | inconclusive: -3.3%
O=C1[C@@H]2CSCN2C(=O)CN1Cc1c(F)cccc1Cl | inconclusive: -11.2%
O=C(CCN1C(=O)c2ccccc2C1=O)NCCC1=CCCCC1 | inactive: 8.1%
Cc1ccccc1C(=O)NCC(c1ccco1)N1CCc2ccccc21 (centres undefined) | inconclusive: 7.4%
COc1ccc(CNCCCSc2ncccn2)c(OC)c1 | inconclusive: -40.9%
CN(Cc1cccnc1)C(=O)c1cc(S(=O)(=O)Nc2ccccc2F)ccc1Cl | inconclusive: 2.7%
CCN(CC)S(=O)(=O)c1ccc(N2CCOCC2)c(NC(=O)c2ccc3c(c2)OCCO3)c1 | inconclusive: -34%
O=S(=O)(CCN1CCOCC1)c1ccc(Oc2ccc(S(=O)(=O)CCN3CCOCC3)cc2)cc1 | inconclusive: -8.2%

Compound | inhibition
COC(=O)[C@@]12CCCCN1[C@H](c1ccc(-c3ccc(F)cc3)cc1)[C@@H]1C(=O)N(C)C(=O)[C@@H]12 | inactive: -10.2%
CCC(=O)Nc1ccc(C(=O)NNC(=O)c2ccc(C)cc2)cc1 | inconclusive: -14.8%
Cc1ccc(C2CC(c3cccs3)=NN2S(=O)(=O)c2ccc(C)cc2)cc1 (centres undefined) | inactive: -6.5%
CC(=O)c1cc2c(cc1F)C(C)(C)CCC2(C)C | inactive: -1.9%
Cc1ccccc1C(=O)NC1CCN(CC(=O)Nc2ccc(Br)cc2)CC1 | inconclusive: -8.9%
CC(=O)c1cccc(NC(=S)NC(=O)Cc2ccc(Cl)cc2)c1 | inconclusive: -6.2%
COc1cc(C)c(C#N)c(OC)n1 | inconclusive: -46.1%
CCCn1c(CCc2ccccc2)nnc1SCC(=O)N1CCOCC1 | inconclusive: 18.2%
O=c1[nH]cnc2ncc(-c3ccc(O)cc3)nc12 | inconclusive: 28.6%
CC(C)CNC(=O)c1ccc2c(c1)C(=O)N(C1CCCCC1)C2=O | inconclusive: -25.5%
O=C(COc1cccc(C(F)(F)F)c1)NCC(c1ccco1)N1CCCCC1 (centres undefined) | inconclusive: -5.4%
Cn1ncc(N=Cc2ccccc2O)c1C(=O)Nc1ccccc1 | inconclusive: 1.2%
COc1cc(-c2cc(OC)c(O)c(OC)c2)cc(OC)c1O | inactive: -2.3%
Cc1cc(Br)ccc1OCCCCNCCO | inactive: -9.4%
Cc1ccc(C)c(OCCC(=O)OCC(=O)NC(=O)NCc2ccccc2)c1 | inconclusive: -3.9%
COc1ccc(NC(=S)N2CCC(C(=O)c3ccc(OC)cc3)CC2)cc1 | inconclusive: 26.3%
CC(C)N1CCC(C)(C(=O)Nc2cccc3c2CCCC3)C1 (centres undefined) | inactive: 5.8%
Nn1cnnc1N/N=C/c1ccc(F)cc1 | inconclusive: 5.2%
C=CCn1c(SCC(C)=O)nc2sc3c(c2c1=O)CCC3 | inconclusive: 2.2%
CC(=O)NCCNc1nc2c(-c3ccccc3)nnn2c2ccccc12 | inconclusive: -21.6%
CC(C)N1CCN(Cc2ccc(-c3ccccc3)cc2)CC1CCO (centres undefined) | inconclusive: 14.3%
O=C(NC1=NCCS1)c1cc(Cl)ccc1Cl | inconclusive: -26.5%
Cc1cc(OCC(=O)NCCO)cc(C)c1Cl | inconclusive: -16.2%
Cc1cc2cc(C(c3nnnn3Cc3ccco3)N3CCc4ccccc43)c(=O)[nH]c2cc1C (centres undefined) | inactive: -12.5%

Compound | inhibition
O=C(NCCCCNC(=O)c1ccccc1F)c1ccccc1F | inconclusive: -4.1%
COc1cccc(NC2=NCCCS2)c1 | inconclusive: 29.8%
CC(NC(=O)c1ccncc1)c1ccccc1 (centres undefined) | inconclusive: -5.3%
N#C/C(C(=O)Nc1ccc(Cl)cc1)=C(/S)Nc1ccccc1 | inactive: 4.6%
CC(C)c1ccc(NC(=O)Cn2c(=O)oc3cccnc32)cc1 | inconclusive: 6.7%
CN(C)/C=N/c1nc2nccc(-c3cccc(Cl)c3)n2n1 | inactive: -5.6%
O=C(O)c1cc(NC(=O)c2cccc(F)c2)cc(NC(=O)c2cccc(F)c2)c1 | inactive: -8.2%
Cc1cc2nc3ccc(N(C)C)cc3nc2cc1N | inconclusive: 118%
NNC(=O)Cc1csc(-c2ccccc2)n1 | inconclusive: -46.3%
C/C=C(\C)CN1CCN(c2ccccc2F)CC1 | inactive: -3.7%
Cc1ccc(-n2ncc3c2CCCC3NC(=O)CCc2c(C)noc2C)cc1C (centres undefined) | inactive: -0.9%
CCOC(=O)C(O)C1CCc2c([nH]c3ccc(C)cc23)C1=O (centres undefined) | inconclusive: -28.5%
Cc1cc2oc(=O)cc(CN3CCCc4ccccc43)c2cc1C | inconclusive: -3.4%
Cc1ccc2c(O)c(Cc3ccccc3)c(=O)[nH]c2n1 | inconclusive: -7.3%
NS(=O)(=O)c1ccc(C(=O)Nc2ccc(-c3nc4cccnc4s3)cc2)cc1 | inactive: -1.2%
O=C(COC(=O)c1cccnc1Nc1ccccc1F)NCCN1C(=O)CSC1=O | active: 68.6%
Cc1ccc(Cn2cc(CN(C)C3CN(Cc4cn(Cc5ccc(C)cc5)nn4)S(=O)(=O)C3)nn2)cc1 (centres undefined) | inactive: -3.3%
COc1ccc(C2C(C#N)=C(N)Oc3cc(N)ccc32)cc1 (centres undefined) | inconclusive: -16.4%
Cc1cc(C)c(C)c(S(=O)(=O)NCCN2CCOCC2)c1C | inconclusive: -41.2%
CC(C)(C)c1cc(CP(=O)(c2ccccc2)c2ccccc2)cc(C(C)(C)C)c1O | inconclusive: -27.9%
CCCCN(CC)CCNC(=O)CN1C(=O)COc2ccc(S(=O)(=O)N3CCCC3)cc21 | inactive: 6.1%
Cc1cccc2c1c(N=NC(N)=S)c(O)n2C1OC(CO)C(O)C(O)C1O (centres undefined) | inactive: -17.6%
